Measured values as given in PMC8270965.
Results are given in words; binding and its absence hold for the method and conditions named. Binding seen in cells or lysates may run through a third protein. Some binding calls cover weakened binding; strength is not graded here. For some assays here: Tags and fused reporters may be left off the sequences shown.

By UniProt entry, the sequences of proteins in these tests, tags left out.
UniProt Q8K458: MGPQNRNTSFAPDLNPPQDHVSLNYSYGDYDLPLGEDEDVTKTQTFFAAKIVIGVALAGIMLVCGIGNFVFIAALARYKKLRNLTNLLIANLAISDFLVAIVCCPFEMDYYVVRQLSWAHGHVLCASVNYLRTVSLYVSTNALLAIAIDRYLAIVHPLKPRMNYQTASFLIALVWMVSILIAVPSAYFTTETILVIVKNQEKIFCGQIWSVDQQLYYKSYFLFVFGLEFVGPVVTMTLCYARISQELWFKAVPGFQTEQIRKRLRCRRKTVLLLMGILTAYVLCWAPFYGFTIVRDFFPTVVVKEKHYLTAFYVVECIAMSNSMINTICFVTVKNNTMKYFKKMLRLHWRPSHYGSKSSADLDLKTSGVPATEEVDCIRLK
UniProt Q9QUJ7: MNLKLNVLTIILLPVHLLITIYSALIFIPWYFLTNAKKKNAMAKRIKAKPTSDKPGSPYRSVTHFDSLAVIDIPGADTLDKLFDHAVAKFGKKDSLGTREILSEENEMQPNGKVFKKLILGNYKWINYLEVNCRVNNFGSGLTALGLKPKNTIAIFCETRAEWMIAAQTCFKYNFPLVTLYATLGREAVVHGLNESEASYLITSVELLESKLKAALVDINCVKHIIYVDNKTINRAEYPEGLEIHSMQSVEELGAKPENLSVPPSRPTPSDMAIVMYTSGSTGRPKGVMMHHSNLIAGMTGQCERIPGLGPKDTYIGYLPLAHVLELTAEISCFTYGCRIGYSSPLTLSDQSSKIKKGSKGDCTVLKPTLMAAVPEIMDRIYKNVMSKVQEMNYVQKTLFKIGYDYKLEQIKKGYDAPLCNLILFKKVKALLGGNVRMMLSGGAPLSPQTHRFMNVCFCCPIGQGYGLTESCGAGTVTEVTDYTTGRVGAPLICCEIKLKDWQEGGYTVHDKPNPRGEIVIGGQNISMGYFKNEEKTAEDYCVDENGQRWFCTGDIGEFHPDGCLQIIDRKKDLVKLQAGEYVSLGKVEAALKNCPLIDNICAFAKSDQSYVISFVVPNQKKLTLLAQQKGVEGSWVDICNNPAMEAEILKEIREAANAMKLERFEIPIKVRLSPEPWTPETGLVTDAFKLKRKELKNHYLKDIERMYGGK

Columns and labels:
[1] = target: Prokineticin receptor 2 (Prokr2) (mouse (endogenous in brain tissue)) (UniProt Q8K458); test: co-IP; lysates of mouse brain tissue with and without CCI in weak RIPA buffer, primary antibody overnight at 4 °C, protein A/G agarose, immunoblot; which protein was precipitated not given
[2] = target: long-chain-fatty-acid-CoA ligase 4 (Acsl4) (mouse (endogenous in primary cortical neurons)) (UniProt Q9QUJ7); test: co-IP; Myc-tagged Fbxo10 fragments (aa 6-49, aa 460-867, aa 1-951) from plasmids, Myc-only plasmid as control; tested for interaction with Acsl4; method not named for this panel

| binding [1] | binding [2] | Binder |
| --- | --- | --- |
| binds | – | Prokineticin-2 (Prok2) (ligand, UniProt Q9QXU7 27-128) AVITGACDKDSQCGGGMCCAVSIWVKSIRICTPMGQVGDSCHPLTRKSHVANGRQERRRAKRRKRKKEVPFWGRRMHHTCPCLPGLACLRTSFNRFICLARK |
| – | binds | Myc-tagged Fbxo10 domain (aa 460-867) (domain or fragment, UniProt Q7TQF2 460-867) YAVRCIHNSKIVMLRNDIYRCRASGIFLRLEGGGLIAGNNIYHNAEAGVDIRKKSNPLILCNQIHHGLRSGIVVLGNGKGVIRNNQIFSNKEAGIYILYHGNPIVSGNHIFKGRAAGIAVNENGKGLITENVIRENQWGGVDIRRGGVPILRSNLICFGYSDGVVVGDEGKGLIEGNTIYANKGCGVWMMSSSLPHVTSNHVSYNGLYGVAVFSQKDGEFPGGHGAQENFSEDGDAILWEAELEKEDDPLRRPITVALVESNSINHNGASGIFVQSSEALQVVANVIHANGDRGITIVQSSQLTRVANNSISCNRQSGVKVEFQCKVELRGNGIYDNRGHGIITKGDGTAVVENDIIGNRGSGLQLLPRSDTKVLKNRIHSFRAYGIAVRGRVKALVQENIIFQGKTN |
